Data as given in PubChem BioAssay AID720505 (Drosophila RNAi Screening Center, 2013)

Aim: 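Fly regulators or components of the CRAC channel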 (primary screen)
System: Drosophila S2R+ cells
Knock-down reagent: long dsRNA against Drosophila genes
Challenge: thapsigargin (2 µM) in calcium-free buffer to empty internal stores, then 2 mM calcium added back
Detection: 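Stores emptied by 2 µM thapsigargin without calcium, then 2 mM calcium re-added; fluo-4 fluorescence followed by FLIPR in 384-well plates, per-well averaged endpoint, raw; two screen passes, some wells retested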
Direction: calcium signal and retest calcium signal: higher = more calcium entry after store depletion
Rule for the call: 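About 1500 genes called as lowering calcium entry, by varying amounts, judged against per-plate control wells with STIM1 as positive and Rho1 as negative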
Meaning of the calls: active = called as lowering calcium entry; inactive = not called
In all, the deposit lists about 20,000 reagents; this is an unselected part of those that have a named target and a result. Of all reagents, about 2,100 (10%) are marked active. 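Raw plate signals without normalisation; calls rest on control-based scores that were not deposited; replicate 2 separates called from uncalled poorly.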 The numbers tell different reagents against one gene apart. A plus sign joins genes that one reagent is predicted to hit. Not stated in the record: the amount of reagent, the time to read-out.

no.	Gene	dsRNA no.	calcium signal, replicate 1	calcium signal, replicate 2	retest calcium signal, replicate 1	retest calcium signal, replicate 2	outcome
1	Bin1 (Bicoid interacting protein 1)	1	156	192			inactive
2	Taf1 (TBP-associated factor 1)	1	170	155			inactive
3	GABA-B-R1 (metabotropic GABA-B receptor subtype 1)	1	84.5	215			inactive
4	Ir67b (Ionotropic receptor 67b)	1	58.9	101			inactive
5	CG31730	1	183	103			inactive
6	CG7691	1	186	122			inactive
7	CG10904	1	184	259			inactive
8	nemy (no extended memory)	1	95.3	113			inactive
9	nemy (no extended memory)	2	162	100	120	153	inactive
10	CaBP1 (calcium-binding protein 1)	1	132	104			inactive
11	ppk17 (pickpocket 17)	1	94.6	135			inactive
12	S2P (site-2 protease)	1	99.2	165			inactive
13	Rab3GAP1 (RAB3 GTPase activating protein subunit 1)	1	152	177			inactive
14	Rab3GAP1 (RAB3 GTPase activating protein subunit 1)	2	191	176			inactive
15	mRpL32 (mitochondrial ribosomal protein L32)	1	179	160			inactive
16	CG16957	1	105	109			inactive
17	CG16700	1	105	113			inactive
18	gbb (glass bottom boat)	1	99.5	196			inactive
19	GstD5 (Glutathione S transferase D5)	1	121	126			inactive
20	fy (fuzzy)	1	205	107			inactive
21	asRNA:CR43259 + CG31089	1	309	167			inactive
22	CG3815	1	93.4	88.2			inactive
23	Aef1 (Adult enhancer factor 1)	1	78.2	144			inactive
24	Mtap (Methylthioadenosine phosphorylase)	1	214	130			inactive
25	Polr3E (RNA polymerase III subunit E)	1	79.8	106			inactive
26	CG11350	1	64.3	56.6	84.7	104	inactive
27	CG7220	1	107	121			inactive
28	CG7220	2	124	165			inactive
29	Hmx (H6-like-homeobox)	1	113	139			inactive
30	Hmx (H6-like-homeobox)	2	130	107			active
31	Hmx (H6-like-homeobox)	3	52.3	164			inactive
32	Hmx (H6-like-homeobox)	4	80.1	95.7			inactive
33	Hs6st (Heparan sulfate 6-O-sulfotransferase)	1	135	90.5			inactive
34	Hs6st (Heparan sulfate 6-O-sulfotransferase)	2	209	196			inactive
35	Hs6st (Heparan sulfate 6-O-sulfotransferase)	3	148	105	8476	124	inactive
36	Hs6st (Heparan sulfate 6-O-sulfotransferase)	4	116	105			inactive
37	CG33332	1	110	173			inactive
38	CG10943	1	113	62.8			inactive

Reprinted from above, 6 entries:
no.	Gene	dsRNA no.	calcium signal, replicate 1	calcium signal, replicate 2	retest calcium signal, replicate 1	retest calcium signal, replicate 2	outcome
29	Hmx (H6-like-homeobox)	1	113	139			inactive
30	Hmx (H6-like-homeobox)	2	130	107			active
31	Hmx (H6-like-homeobox)	3	52.3	164			inactive
32	Hmx (H6-like-homeobox)	4	80.1	95.7			inactive
33	Hs6st (Heparan sulfate 6-O-sulfotransferase)	1	135	90.5			inactive
34	Hs6st (Heparan sulfate 6-O-sulfotransferase)	2	209	196			inactive

The results go on.
no.	Gene	dsRNA no.	calcium signal, replicate 1	calcium signal, replicate 2	retest calcium signal, replicate 1	retest calcium signal, replicate 2	outcome
39	dib (disembodied)	1	94.7	129			inactive
40	eIF2alpha (eukaryotic translation initiation factor 2 subunit alpha)	1	93.7	119			inactive
41	Ppm1	1	87.4	105			inactive
42	tfc (triforce)	1	96.4	135			inactive
43	tfc (triforce)	2	124	69.1			inactive
44	alpha-Est10 (alpha-Esterase-10)	1	145	129			inactive
45	Polr3C (RNA polymerase III subunit C)	1	115	114			inactive
46	S6k (Ribosomal protein S6 kinase)	1	118	97.4			inactive
47	CG9899	1	145	212			inactive
48	CG31551	1	148	149	122	134	inactive
49	CG31551	2	71	156			inactive
50	CG32532	1	174	101			inactive
51	CG32532	2	171	83.7			inactive
52	CG32532	3	75.4	196			active
53	CG32532	4	125	106			inactive
54	RpS2 (Ribosomal protein S2)	1	79.2	83.4			inactive
55	Grip75	1	184	119			inactive
56	CG13946	1	130	177			inactive
57	Fdh (Formaldehyde dehydrogenase)	1	89.1	129			inactive
58	CREG (Cellular Repressor of E1A-stimulated Genes)	1	134	195			inactive
59	Dlg5 (Discs large 5)	1	74.3	119			inactive
60	NC2alpha (Negative Cofactor 2alpha)	1	79	89.3			inactive
61	Drak (Death-associated protein kinase related)	1	70.2	100			inactive
62	Drak (Death-associated protein kinase related)	2	155	204			inactive
63	glob1 (globin 1)	1	123	201			inactive
64	CR12798 (pseudo)	1	130	89.6			inactive
65	wdb (widerborst)	1	87	97.7			inactive
66	CG17625	1	154	115			inactive
67	Pof (Painting of fourth)	1	72.2	196			active
68	Lsp1beta (Larval serum protein 1 beta)	1	125	204			inactive
69	rdo (reduced ocelli)	1	79.2	109			inactive
70	CG2663	1	139	164			inactive
71	tweek	1	131	167			inactive
72	tweek	2	120	107			inactive
73	tweek	3	105	135			inactive
74	tweek	4	114	165			inactive
75	CG14949	1	87.9	75.2			inactive
76	CAH7 (Carbonic anhydrase 7)	1	77.8	84.2			inactive
77	lectin-21Cb	1	90.8	130			inactive
78	scpr-A + scpr-C + scpr-B	1	97.8	110			inactive
79	Aven (Apoptosis and caspase activation inhibitor)	1	75.1	102			inactive
80	CG34199	1	144	87.4			inactive
81	CG14443	1	156	124			inactive
82	bsf (bicoid stability factor)	1	85.7	117			inactive
83	CG14615	1	115	99.8			inactive
